US20050272633A1
These are yes or no findings as the source states them, for the method shown. Binding calls can cover weak binding; strength is not graded here. For some of these results: Binding seen in cells or lysates may run through a third protein. For some of these results: Sequences can lack the tags named with a protein. Blank lines part the entries; values can stand above or below the binder they belong to.

The chains behind the UniProt entries cited, without tags or fusion partners. Where a name states a change or a piece, a line headed by the entry shows the natural chain unless it says otherwise.
UniProt P31785: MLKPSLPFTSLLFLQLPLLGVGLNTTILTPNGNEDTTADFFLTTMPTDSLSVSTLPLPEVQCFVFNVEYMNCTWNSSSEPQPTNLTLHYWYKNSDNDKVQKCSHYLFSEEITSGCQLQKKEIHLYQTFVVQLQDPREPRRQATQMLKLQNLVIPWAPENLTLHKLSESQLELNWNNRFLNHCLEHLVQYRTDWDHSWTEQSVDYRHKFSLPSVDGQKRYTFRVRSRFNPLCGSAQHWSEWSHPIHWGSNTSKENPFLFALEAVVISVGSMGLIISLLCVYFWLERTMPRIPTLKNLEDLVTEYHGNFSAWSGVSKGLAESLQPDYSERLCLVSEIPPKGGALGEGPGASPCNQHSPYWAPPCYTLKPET

How the values were obtained:
[1] = biological target: IL-2 receptor common gamma chain (cγc), full length (1-369) (human) (UniProt P31785); experiment: co-immunoprecipitation with anti cγc from 293T cells, Western blot with anti His
[2] = biological target: IL-2 receptor common gamma chain (cγc), full length (1-369) (human) (UniProt P31785); experiment: as printed: two-hybrid method (Example 2 describes co-immunoprecipitation)
[3] = biological target: IL-2 receptor common gamma chain (cγc), full length (1-369) (human) (UniProt P31785); experiment: co-immunoprecipitation from 293-T lysates
[4] = biological target: IL-2 receptor common gamma chain (cγc), full length (1-369) (human) (UniProt P31785); experiment: co-immunoprecipitation with anti myc from 293-T lysate, Western blot with anti cγc
[5] = biological target: IL-2 receptor common gamma chain (cγc), full length (1-369) (human) (UniProt P31785); experiment: yeast two-hybrid, NIK deletion mutant as bait, cγc as prey, beta-gal assay

B1: NIK 1-771, His tagged (enzyme, human, UniProt Q99558 1-771, looked up)
chain: MAVMEMACPGAPGSAVGQQKELPKAKEKTPPLGKKQSSVYKLEAVEKSPVFCGKWEILNDVITKGTAKEGSEAGPAAISIIAQAECENSQEFSPTFSERIFIAGSKQYSQSESLDQIPNNVAHATEGKMARVCWKGKRRSKARKKRKKKSSKSLAHAGVALAKPLPRTPEQESCTIPVQEDESPLGAPYVRNTPQFTKPLKEPGLGQLCFKQLGEGLRPALPRSELHKLISPLQCLNHVWKLHHPQDGGPLPLPTHPFPYSRLPHPFPFHPLQPWKPHPLESFLGKLACVDSQKPLPDPHLSKLACVDSPKPLPGPHLEPSCLSRGAHEKFSVEEYLVHALQGSVSSGQAHSLTSLAKTWAARGSRSREPSPKTEDNEGVLLTEKLKPVDYEYREEVHWATHQLRLGRGSFGEVHRMEDKQTGFQCAVKKVRLEVFRAEELMACAGLTSPRIVPLYGAVREGPWVNIFMELLEGGSLGQLVKEQGCLPEDRALYYLGQALEGLEYLHSRRILHGDVKADNVLLSSDGSHAALCDFGHAVCLQPDGLGKSLLTGDYIPGTETHMAPEVVLGRSCDAKVDVWSSCCMMLHMLNGCHPWTQFFRGPLCLKIASEPPPVREIPPSCAPLTAQAIQEGLRKEPIHRVSAAELGGKVNRALQQVGGLKSPWRGEYKEPRHPPPNQANYHQTLHAQPRELSPRAPGPRPAEETTGRAPKLQPPLPPEPPEPNKSPPLTLSKEESGMWEPLPLSSLEPAPARNPSSPERKATVPEQELQ
binding [1]: binds

B4: NIK 1-820 (enzyme, human, UniProt Q99558 1-820, looked up)
chain: MAVMEMACPGAPGSAVGQQKELPKAKEKTPPLGKKQSSVYKLEAVEKSPVFCGKWEILNDVITKGTAKEGSEAGPAAISIIAQAECENSQEFSPTFSERIFIAGSKQYSQSESLDQIPNNVAHATEGKMARVCWKGKRRSKARKKRKKKSSKSLAHAGVALAKPLPRTPEQESCTIPVQEDESPLGAPYVRNTPQFTKPLKEPGLGQLCFKQLGEGLRPALPRSELHKLISPLQCLNHVWKLHHPQDGGPLPLPTHPFPYSRLPHPFPFHPLQPWKPHPLESFLGKLACVDSQKPLPDPHLSKLACVDSPKPLPGPHLEPSCLSRGAHEKFSVEEYLVHALQGSVSSGQAHSLTSLAKTWAARGSRSREPSPKTEDNEGVLLTEKLKPVDYEYREEVHWATHQLRLGRGSFGEVHRMEDKQTGFQCAVKKVRLEVFRAEELMACAGLTSPRIVPLYGAVREGPWVNIFMELLEGGSLGQLVKEQGCLPEDRALYYLGQALEGLEYLHSRRILHGDVKADNVLLSSDGSHAALCDFGHAVCLQPDGLGKSLLTGDYIPGTETHMAPEVVLGRSCDAKVDVWSSCCMMLHMLNGCHPWTQFFRGPLCLKIASEPPPVREIPPSCAPLTAQAIQEGLRKEPIHRVSAAELGGKVNRALQQVGGLKSPWRGEYKEPRHPPPNQANYHQTLHAQPRELSPRAPGPRPAEETTGRAPKLQPPLPPEPPEPNKSPPLTLSKEESGMWEPLPLSSLEPAPARNPSSPERKATVPEQELQQLEIELFLNSLSQPFSLEEQEQILSCLSIDSLSLSDDSEKNPSKASQSS
binding [5]: binds

B5: NIK 1-720, His tagged (enzyme, human, UniProt Q99558 1-720, looked up)
chain: MAVMEMACPGAPGSAVGQQKELPKAKEKTPPLGKKQSSVYKLEAVEKSPVFCGKWEILNDVITKGTAKEGSEAGPAAISIIAQAECENSQEFSPTFSERIFIAGSKQYSQSESLDQIPNNVAHATEGKMARVCWKGKRRSKARKKRKKKSSKSLAHAGVALAKPLPRTPEQESCTIPVQEDESPLGAPYVRNTPQFTKPLKEPGLGQLCFKQLGEGLRPALPRSELHKLISPLQCLNHVWKLHHPQDGGPLPLPTHPFPYSRLPHPFPFHPLQPWKPHPLESFLGKLACVDSQKPLPDPHLSKLACVDSPKPLPGPHLEPSCLSRGAHEKFSVEEYLVHALQGSVSSGQAHSLTSLAKTWAARGSRSREPSPKTEDNEGVLLTEKLKPVDYEYREEVHWATHQLRLGRGSFGEVHRMEDKQTGFQCAVKKVRLEVFRAEELMACAGLTSPRIVPLYGAVREGPWVNIFMELLEGGSLGQLVKEQGCLPEDRALYYLGQALEGLEYLHSRRILHGDVKADNVLLSSDGSHAALCDFGHAVCLQPDGLGKSLLTGDYIPGTETHMAPEVVLGRSCDAKVDVWSSCCMMLHMLNGCHPWTQFFRGPLCLKIASEPPPVREIPPSCAPLTAQAIQEGLRKEPIHRVSAAELGGKVNRALQQVGGLKSPWRGEYKEPRHPPPNQANYHQTLHAQPRELSPRAPGPRPAEETTGRAPKLQPPLPPE
binding [1]: binds

Next, values leading:

binding [1]: binds
B2: NIK 1-821, His tagged (enzyme, human, UniProt Q99558 1-821, looked up)
chain: MAVMEMACPGAPGSAVGQQKELPKAKEKTPPLGKKQSSVYKLEAVEKSPVFCGKWEILNDVITKGTAKEGSEAGPAAISIIAQAECENSQEFSPTFSERIFIAGSKQYSQSESLDQIPNNVAHATEGKMARVCWKGKRRSKARKKRKKKSSKSLAHAGVALAKPLPRTPEQESCTIPVQEDESPLGAPYVRNTPQFTKPLKEPGLGQLCFKQLGEGLRPALPRSELHKLISPLQCLNHVWKLHHPQDGGPLPLPTHPFPYSRLPHPFPFHPLQPWKPHPLESFLGKLACVDSQKPLPDPHLSKLACVDSPKPLPGPHLEPSCLSRGAHEKFSVEEYLVHALQGSVSSGQAHSLTSLAKTWAARGSRSREPSPKTEDNEGVLLTEKLKPVDYEYREEVHWATHQLRLGRGSFGEVHRMEDKQTGFQCAVKKVRLEVFRAEELMACAGLTSPRIVPLYGAVREGPWVNIFMELLEGGSLGQLVKEQGCLPEDRALYYLGQALEGLEYLHSRRILHGDVKADNVLLSSDGSHAALCDFGHAVCLQPDGLGKSLLTGDYIPGTETHMAPEVVLGRSCDAKVDVWSSCCMMLHMLNGCHPWTQFFRGPLCLKIASEPPPVREIPPSCAPLTAQAIQEGLRKEPIHRVSAAELGGKVNRALQQVGGLKSPWRGEYKEPRHPPPNQANYHQTLHAQPRELSPRAPGPRPAEETTGRAPKLQPPLPPEPPEPNKSPPLTLSKEESGMWEPLPLSSLEPAPARNPSSPERKATVPEQELQQLEIELFLNSLSQPFSLEEQEQILSCLSIDSLSLSDDSEKNPSKASQSSR

binding [2]: binds | binding [3]: binds | binding [4]: binds
B3: NIK aly mutant (NIK-G860R), myc tagged (pcS3MTNIKaly) (enzyme, human, UniProt Q99558 1-947, looked up, not shown: small tags and cut ends)
chain: MAVMEMACPGAPGSAVGQQKELPKAKEKTPPLGKKQSSVYKLEAVEKSPVFCGKWEILNDVITKGTAKEGSEAGPAAISIIAQAECENSQEFSPTFSERIFIAGSKQYSQSESLDQIPNNVAHATEGKMARVCWKGKRRSKARKKRKKKSSKSLAHAGVALAKPLPRTPEQESCTIPVQEDESPLGAPYVRNTPQFTKPLKEPGLGQLCFKQLGEGLRPALPRSELHKLISPLQCLNHVWKLHHPQDGGPLPLPTHPFPYSRLPHPFPFHPLQPWKPHPLESFLGKLACVDSQKPLPDPHLSKLACVDSPKPLPGPHLEPSCLSRGAHEKFSVEEYLVHALQGSVSSGQAHSLTSLAKTWAARGSRSREPSPKTEDNEGVLLTEKLKPVDYEYREEVHWATHQLRLGRGSFGEVHRMEDKQTGFQCAVKKVRLEVFRAEELMACAGLTSPRIVPLYGAVREGPWVNIFMELLEGGSLGQLVKEQGCLPEDRALYYLGQALEGLEYLHSRRILHGDVKADNVLLSSDGSHAALCDFGHAVCLQPDGLGKSLLTGDYIPGTETHMAPEVVLGRSCDAKVDVWSSCCMMLHMLNGCHPWTQFFRGPLCLKIASEPPPVREIPPSCAPLTAQAIQEGLRKEPIHRVSAAELGGKVNRALQQVGGLKSPWRGEYKEPRHPPPNQANYHQTLHAQPRELSPRAPGPRPAEETTGRAPKLQPPLPPEPPEPNKSPPLTLSKEESGMWEPLPLSSLEPAPARNPSSPERKATVPEQELQQLEIELFLNSLSQPFSLEEQEQILSCLSIDSLSLSDDSEKNPSKASQSSRDTLSSGVHSWSSQAEARSSSWNMVLARGRPTDTPSYFNRVKVQIQSLNGEHLHIREFHRVKVGDIATGISSQIPAAAFSLVTKDGQPVRYDMEVPDSGIDLQCTLAPDGSFAWSWRVKHGQLENRP
